Data on one substance can be found in publication PMC7083878.

The chains behind the UniProt entries cited, without tags or fusion partners.
UniProt P46937: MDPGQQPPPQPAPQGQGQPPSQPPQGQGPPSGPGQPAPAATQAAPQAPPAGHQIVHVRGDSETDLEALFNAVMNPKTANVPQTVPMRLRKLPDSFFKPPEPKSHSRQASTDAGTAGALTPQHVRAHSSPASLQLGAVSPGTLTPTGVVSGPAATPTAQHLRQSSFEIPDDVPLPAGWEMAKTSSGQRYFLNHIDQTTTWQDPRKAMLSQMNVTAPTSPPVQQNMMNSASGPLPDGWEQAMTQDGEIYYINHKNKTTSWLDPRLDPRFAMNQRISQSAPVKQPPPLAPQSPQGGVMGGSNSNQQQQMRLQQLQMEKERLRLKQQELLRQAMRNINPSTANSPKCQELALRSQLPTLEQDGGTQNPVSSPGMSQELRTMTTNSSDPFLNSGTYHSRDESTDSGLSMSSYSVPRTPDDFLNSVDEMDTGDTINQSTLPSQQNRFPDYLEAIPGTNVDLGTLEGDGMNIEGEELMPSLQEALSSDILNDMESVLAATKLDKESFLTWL

This test addresses T1, RNF187 (Ring finger 187) (human (endogenous in BT549)) (UniProt Q5TA31).
T1 sequence: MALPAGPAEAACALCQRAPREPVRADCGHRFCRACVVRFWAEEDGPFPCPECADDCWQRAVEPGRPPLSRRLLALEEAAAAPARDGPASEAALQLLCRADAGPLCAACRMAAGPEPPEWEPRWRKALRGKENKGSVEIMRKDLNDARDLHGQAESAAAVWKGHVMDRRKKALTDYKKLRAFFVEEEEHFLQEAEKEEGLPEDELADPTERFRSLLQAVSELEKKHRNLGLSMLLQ
The test is described as follows: co-IP; endogenous proteins; BT549 total cell lysate (RIPA buffer) pre-cleared with rabbit IgG for 2 h, immunoprecipitated with RNF187 antibody or YAP antibody overnight, rabbit IgG as negative control; blotted with anti-YAP or anti-RNF187.

These are yes or no findings as the source states them, for the method shown. In cells and extracts the contact can be indirect. Some binding calls cover weakened binding; strength is not graded here.

Consider YAP (from UniProt P46937 1-504), for which the binding entry is on record as “binds”.
